Experimental data from PubChem BioAssay AID651707 (NMMLSC, 2012).
This is one part of the list. Some results for these compounds are left out of this collection, so the calls shown say nothing about other tests.

Assay: intrinsic compound fluorescence in ER-HoxA9 progenitors, confirmation, artefact control for AML myeloid differentiation project, cell-based, flow cytometry, GFP/APC, Cherry Pick01 (AID 651707);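 also: share of cells both GFP positive and bound by Mac1 APC antibody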
Conditions: no estrogen, GFP autofluorescence flow cytometry, measured here: double positive GFP/APC population, stronger effect = higher value

Row | Compound | double positive [%]
1 | CCN(CC)CC(C)C(C)OC(=O)C(O)(c1ccccc1)c1ccccc1 (stereo unspecified) | 0
